Results from patent publication US20250374926A1, “NOVEL DERIVATIVES OF NON-CODED AMINO ACIDS AND THEIR USE IN CROP PROTECTION” (FORTEPHEST LTD., priority 2022, published 2025).
The name of at least one read-out is uncertain.

System: Lettuce seeds
Assay: Filter paper bioassay on germination and early development of Lettuce seeds
Format: in vivo
Conditions: lowest concentration causing malformation of radicle or shoots; visually assessed six days after beginning; 0 to 1 mmol/l
Description: Materials: Seeds of Lettuce R. (Super-Jericho, non-sterilized) were obtained from Ben Shahar Moshe Ltd., 99% purity. The test compounds listed in Table 3 below were synthesized de novo or purchased from different vendors. Bioassays: Filter Paper Bioassays with Lettuce seeds were performed following Bertin et al. 2009 with modifications as described below. Seeds were placed on Whatman no. 1 filter paper (Whatman, Middlesex, U.K.) in Petri dishes (10 seeds per plate) with 2.0 ml of an aqueous solution of test material in a concentration ranging from 0 (control) to 1 mmol/l. The Petri dishes were arranged in a tray tilted at a 45-degree angle and were kept in the dark for 48 hours. Then trays with plates were transferred to the growth chamber with a 6/18 dark/light cycle for four days. Each experiment was performed in at least two repeats.
The development of plants' radicles and shoots was visually assessed six days after the beginning of the test to determine the Minimal Effective Concentration (MEC) of a test material. In the context of the invention, MEC is defined as the lowest concentration level of a test material that caused deviation (malformation of radicle or shoots).

CCOC(=O)COc1ccc(F)c(Br)n1 [compound 7118, ethyl [(6-bromo-5-fluoropyridin-2-yl)oxy]acetate]
activity score: 5 (0.001 mM)
